Laboratory results as given in article PMC10904832.
These are yes or no findings as the source states them, for the method shown. In cells and extracts the contact can be indirect. Some entries that bind do so weakly or less than the wild type.

Molecular target: T1, MIC60 (human (endogenous in HeLa)) (UniProt Q16891)
T1 sequence: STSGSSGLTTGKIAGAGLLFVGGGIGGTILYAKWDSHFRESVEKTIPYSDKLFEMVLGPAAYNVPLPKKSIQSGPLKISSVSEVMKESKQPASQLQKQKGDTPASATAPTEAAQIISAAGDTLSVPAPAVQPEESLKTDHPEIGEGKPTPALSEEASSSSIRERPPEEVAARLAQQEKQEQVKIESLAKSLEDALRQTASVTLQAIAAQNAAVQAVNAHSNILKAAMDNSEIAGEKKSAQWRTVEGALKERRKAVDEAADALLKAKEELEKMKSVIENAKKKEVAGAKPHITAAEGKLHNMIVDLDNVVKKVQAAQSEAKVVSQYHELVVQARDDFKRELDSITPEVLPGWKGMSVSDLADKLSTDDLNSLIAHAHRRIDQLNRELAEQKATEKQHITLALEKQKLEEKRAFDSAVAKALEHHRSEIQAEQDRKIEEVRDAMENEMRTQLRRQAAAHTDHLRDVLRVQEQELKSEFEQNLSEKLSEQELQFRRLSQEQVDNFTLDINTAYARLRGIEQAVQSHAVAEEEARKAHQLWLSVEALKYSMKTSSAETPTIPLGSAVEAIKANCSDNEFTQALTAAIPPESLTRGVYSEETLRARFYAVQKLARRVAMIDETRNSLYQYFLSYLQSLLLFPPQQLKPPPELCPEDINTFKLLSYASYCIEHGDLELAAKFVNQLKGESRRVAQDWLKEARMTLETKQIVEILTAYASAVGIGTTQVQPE
Assay: proximity ligation; Duolink in situ PLA in fixed (4% paraformaldehyde), permeabilised (0.2% Triton X-100) HeLa cells, with and without CCCP for 3 h; endogenous proteins detected with pairs of primary antibodies; PLA dots per cell counted

binding: binds
B1: SAM50 (protein, UniProt Q9Y512 1-469)
chain: MGTVHARSLEPLPSSGPDFGGLGEEAEFVEVEPEAKQEILENKDVVVQHVHFDGLGRTKDDIIICEIGDVFKAKNLIEVMRKSHEAREKLLRLGIFRQVDVLIDTCQGDDALPNGLDVTFEVTELRRLTGSYNTMVGNNEGSMVLGLKLPNLLGRAEKVTFQFSYGTKETSYGLSFFKPRPGNFERNFSVNLYKVTGQFPWSSLRETDRGMSAEYSFPIWKTSHTVKWEGVWRELGCLSRTASFAVRKESGHSLKSSLSHAMVIDSRNSSILPRRGALLKVNQELAGYTGGDVSFIKEDFELQLNKQLIFDSVFSASFWGGMLVPIGDKPSSIADRFYLGGPTSIRGFSMHSIGPQSEGDYLGGEAYWAGGLHLYTPLPFRPGQGGFGELFRTHFFLNAGNLCNLNYGEGPKAHIRKLAECIRWSYGAGIVLRLGNIARLELNYCVPMGVQTGDRICDGVQFGAGIRFL
